Assay results from paper PMC5005407.
These are yes or no findings as the source states them, for the method shown. Binding seen in cells or lysates may run through a third protein. Some results given as binding are weak or reduced against the parent protein; the word gives no strength.

Amino acid sequences for entries named in this document (tags omitted).
UniProt Q8BGB7: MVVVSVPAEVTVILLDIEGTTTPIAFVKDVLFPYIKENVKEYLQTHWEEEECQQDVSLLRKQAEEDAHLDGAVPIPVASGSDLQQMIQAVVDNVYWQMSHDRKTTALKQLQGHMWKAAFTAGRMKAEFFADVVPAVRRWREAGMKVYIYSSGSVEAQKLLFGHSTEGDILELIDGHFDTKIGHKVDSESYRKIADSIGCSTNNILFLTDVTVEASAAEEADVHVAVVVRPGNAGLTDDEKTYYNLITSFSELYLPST

Biological target: Enolase-phosphatase 1 (mouse (endogenous in bEND3)) (UniProt Q8BGB7)
Experiment: co-IP; bEND3 whole cell lysates (RIPA buffer, 0.5 mg protein) of control cultures or cells after 6 h OGD; pre-cleared with normal IgG; anti-ENOPH1 overnight at 4°C, protein A/G Plus-Agarose; immunoblot with anti-ADI1

binding: binds
B1: aci-reductone dioxygenase 1 (protein, UniProt Q99JT9 1-179)
chain: MVQAWYMDESTADPRKPHRAQPDRPVSLEQLRTLGVLYWKLDADKYENDPELEKIRKMRNYSWMDIITICKDTLPNYEEKIKMFFEEHLHLDEEIRYILEGSGYFDVRDKEDKWIRISMEKGDMITLPAGIYHRFTLDEKNYVKAMRLFVGEPVWTPYNRPADHFDARVQYMSFLEGTA
